According to article PMC11602137:
The exact form of at least one protein or probe is not confirmed. The comparison behind a weaker result is the experiment's own reference, which may not be listed here. At least one verdict rests on a figure or table, not on a statement of the authors.

Sequences of proteins named here, by UniProt entry; tags and fusion partners are left off.
UniProt Q9UL03, whole entry: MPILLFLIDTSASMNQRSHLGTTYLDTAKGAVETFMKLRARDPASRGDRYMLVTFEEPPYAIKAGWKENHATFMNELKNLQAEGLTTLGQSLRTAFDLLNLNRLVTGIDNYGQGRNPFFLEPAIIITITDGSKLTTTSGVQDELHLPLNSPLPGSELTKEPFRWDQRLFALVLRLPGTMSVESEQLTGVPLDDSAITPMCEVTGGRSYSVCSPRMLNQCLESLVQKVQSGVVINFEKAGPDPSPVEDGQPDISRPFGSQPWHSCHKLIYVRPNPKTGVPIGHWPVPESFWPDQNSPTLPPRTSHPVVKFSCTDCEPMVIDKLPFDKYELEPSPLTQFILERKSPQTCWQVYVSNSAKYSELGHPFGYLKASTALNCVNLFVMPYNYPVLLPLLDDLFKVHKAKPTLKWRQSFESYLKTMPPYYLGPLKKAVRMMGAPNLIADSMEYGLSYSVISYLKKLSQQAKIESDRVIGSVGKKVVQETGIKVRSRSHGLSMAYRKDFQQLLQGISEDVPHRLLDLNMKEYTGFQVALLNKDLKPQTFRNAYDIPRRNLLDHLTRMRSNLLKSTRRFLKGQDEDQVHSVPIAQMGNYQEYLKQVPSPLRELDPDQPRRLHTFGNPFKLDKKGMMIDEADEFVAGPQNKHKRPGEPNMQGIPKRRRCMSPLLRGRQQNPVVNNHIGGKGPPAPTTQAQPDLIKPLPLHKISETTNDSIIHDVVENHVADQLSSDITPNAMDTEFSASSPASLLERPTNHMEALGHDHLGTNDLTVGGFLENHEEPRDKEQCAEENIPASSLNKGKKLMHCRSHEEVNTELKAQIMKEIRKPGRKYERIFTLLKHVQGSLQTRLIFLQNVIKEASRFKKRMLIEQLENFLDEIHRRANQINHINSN

Molecular target: INTS6 (UniProt Q9UL03)
Experiment: EMSA
Details: 5 mM Mg2+, length-dependent ssDNA binding; EMSA: 25 mM Tris-Cl pH 7.5, 1 mM DTT, 5 mM MgCl2, 100 mM NaCl, 20 min at 37 C; protein 22-167 nM, nucleic acid 10 nM; 7.5% native PAGE, 0.5x TBE, 4 C; recombinant protein; protein details: His6-MBP-Asn10-TEV (N-terminal); label: 5'-Cy3; single-stranded DNA

“GTGCCTTGCTAGGACATCTTT [21-mer ssDNA (pR630)]”: binds more weakly.
